Some of the results follow.
Columns and labels:
Assay in all cases: glycan array binding signal (z-score within array); higher = stronger binding
Conditions in all cases: glycan notation: IUPAC condensed, linker removed
Fuc(a1-2)Gal = target: Fuc(a1-2)Gal
In short: (§1)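 Negative Z-scores can be read as non-binding. The Z-score is calculated within each array and then averaged across arrays of one protein sequence at different concentrations or buffers and across linkers. Arrays, 3228 in all, were curated from the Consortium for Functional Glycomics database and kept only where the protein sequence was available.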

Fuc(a1-2)Gal(b1-3)GalNAc = target: Fuc(a1-2)Gal(b1-3)GalNAc
In short: as §1

[1] = target: Fuc(a1-2)Gal(b1-3)GalNAc(a1-3)[Fuc(a1-2)]Gal(b1-4)Glc
In short: as §1

[2] = target: Fuc(a1-2)Gal(b1-3)GalNAc(a1-3)[Fuc(a1-2)]Gal(b1-4)GlcNAc
In short: as §1

[3] = target: Fuc(a1-2)Gal(b1-3)GalNAc(b1-3)Gal
In short: as §1

[4] = target: Fuc(a1-2)Gal(b1-3)GalNAc(b1-3)Gal(a1-4)Gal(b1-4)Glc
In short: as §1

[5] = target: Fuc(a1-2)Gal(b1-3)GalNAc(b1-4)[Neu5Ac(a2-3)]Gal(b1-4)Glc
In short: as §1

Fuc(a1-2)Gal(b1-3)GlcNAc = target: Fuc(a1-2)Gal(b1-3)GlcNAc
In short: as §1

[6] = target: Fuc(a1-2)Gal(b1-3)GlcNAc(b1-2)Man(a1-3)[Fuc(a1-2)Gal(b1-3)GlcNAc(b1-2)Man(a1-6)]Man(b1-4)GlcNAc(b1-4)GlcNAc
In short: as §1

[7] = target: Fuc(a1-2)Gal(b1-3)GlcNAc(b1-2)Man(a1-3)[Fuc(a1-2)Gal(b1-3)GlcNAc(b1-2)Man(a1-6)]Man(b1-4)GlcNAc(b1-4)[Fuc(a1-6)]GlcNAc
In short: as §1

[8] = target: Fuc(a1-2)Gal(b1-3)GlcNAc(b1-3)Gal(b1-4)Glc
In short: as §1

[9] = target: Fuc(a1-2)Gal(b1-3)GlcNAc(b1-3)GalNAc
In short: as §1

[10] = target: Fuc(a1-2)Gal(b1-3)GlcNAc(b1-3)[Fuc(a1-2)Gal(b1-3)GlcNAc(b1-6)]GalNAc
In short: as §1

[11] = target: Fuc(a1-2)Gal(b1-3)GlcNAc(b1-3)[Gal(b1-4)GlcNAc(b1-6)]Gal(b1-4)Glc
In short: as §1

[12] = target: Fuc(a1-2)Gal(b1-3)GlcNAc(b1-3)[Neu5Ac(a2-6)Gal(b1-4)GlcNAc(b1-6)]Gal(b1-4)Glc
In short: as §1

[13] = target: Fuc(a1-2)Gal(b1-3)GlcNAc6S
In short: as §1

[14] = target: Fuc(a1-2)Gal(b1-3)[Fuc(a1-4)]GlcNAc
In short: as §1

[15] = target: Fuc(a1-2)Gal(b1-3)[Fuc(a1-4)]GlcNAc(b1-2)Man(a1-3)[Fuc(a1-2)Gal(b1-3)[Fuc(a1-4)]GlcNAc(b1-2)Man(a1-3)]Man(b1-4)GlcNAc(b1-4)GlcNAc
In short: as §1

[16] = target: Fuc(a1-2)Gal(b1-3)[Fuc(a1-4)]GlcNAc(b1-2)Man(a1-3)[Fuc(a1-2)Gal(b1-3)[Fuc(a1-4)]GlcNAc(b1-2)Man(a1-6)]Man(b1-4)GlcNAc(b1-4)[Fuc(a1-6)]GlcNAc(b1-4)[Fuc(a1-6)]GlcNAc
In short: as §1

[17] = target: Fuc(a1-2)Gal(b1-3)[Fuc(a1-4)]GlcNAc(b1-3)[Fuc(a1-3)[Gal(b1-4)]GlcNAc(b1-6)]Gal(b1-4)Glc
In short: as §1

[18] = target: Fuc(a1-2)Gal(b1-3)[Fuc(a1-4)]GlcNAc(b1-3)[Gal(b1-4)GlcNAc(b1-6)]Gal(b1-4)Glc
In short: as §1

Fuc(a1-2)Gal(b1-4)Glc = target: Fuc(a1-2)Gal(b1-4)Glc
In short: as §1

Fuc(a1-2)Gal(b1-4)Glc6S = target: Fuc(a1-2)Gal(b1-4)Glc6S
In short: as §1

Fuc(a1-2)Gal(b1-4)GlcNAc = target: Fuc(a1-2)Gal(b1-4)GlcNAc
In short: as §1

[19] = target: Fuc(a1-2)Gal(b1-4)GlcNAc(b1-2)Man
In short: as §1

[20] = target: Fuc(a1-2)Gal(b1-4)GlcNAc(b1-2)Man(a1-3)[Fuc(a1-2)Gal(b1-4)GlcNAc(b1-2)Man(a1-6)]Man(b1-4)GlcNAc(b1-4)GlcNAc
In short: as §1

[21] = target: Fuc(a1-2)Gal(b1-4)GlcNAc(b1-2)Man(a1-3)[Fuc(a1-2)Gal(b1-4)GlcNAc(b1-2)Man(a1-6)]Man(b1-4)GlcNAc(b1-4)[Fuc(a1-6)]GlcNAc
In short: as §1

[22] = target: Fuc(a1-2)Gal(b1-4)GlcNAc(b1-2)[Fuc(a1-2)Gal(b1-4)GlcNAc(b1-4)]Man(a1-3)[Fuc(a1-2)Gal(b1-4)GlcNAc(b1-2)Man(a1-6)]Man(b1-4)GlcNAc(b1-4)GlcNAc
In short: as §1

[23] = target: Fuc(a1-2)Gal(b1-4)GlcNAc(b1-3)Gal(b1-4)GlcNAc
In short: as §1

[24] = target: Fuc(a1-2)Gal(b1-4)GlcNAc(b1-3)Gal(b1-4)GlcNAc(b1-2)Man(a1-3)[Fuc(a1-2)Gal(b1-4)GlcNAc(b1-3)Gal(b1-4)GlcNAc(b1-2)Man(a1-6)]Man(b1-4)GlcNAc(b1-4)GlcNAc
In short: as §1

B1: EUL D1A (Oryza sativa) (protein)
chain: MFGFGHHHNQAPAAPSDPNQIFKIFCRANENYCLTVRDSAVVLAPVNPKDEHQHWFKDMRFSTKVKDGEGMPAFALVNKATGLAVKHSLGQSHPVKLVPFNPEYEDASVLWTESKDVGKGFRCIRMVNNTRLNLDAFHGDKDHGGVRDGTTVVLWEWCKGDNQSWKILPWGPEAHSSSPGAATACTIGGVPVHTVRVFSAAGEDYCLTVRNGTACLAPKNPRDDYQHWIKDMRHSNKIRDEEGYPAFALVNKVTGEAIKHSTGQGHPVKLVPYNPEYQDESVLWTESKDVGKGFRCIRMVNNIYLNFDAFHGDKDHGGIHDGTEIVLWKWCEGDNQRWKILPWILEQKLISEEDLNSAVDHHHHHH
- glycan array binding signal (z-score) (Fuc(a1-2)Gal): -0.252
- glycan array binding signal (z-score) (Fuc(a1-2)Gal(b1-3)GalNAc): -0.934
- glycan array binding signal (z-score) [1]: 1.11
- glycan array binding signal (z-score) [2]: -0.481
- glycan array binding signal (z-score) [3]: -2.05
- glycan array binding signal (z-score) [4]: -0.463
- glycan array binding signal (z-score) [5]: 0.453
- glycan array binding signal (z-score) (Fuc(a1-2)Gal(b1-3)GlcNAc): -0.58
- glycan array binding signal (z-score) [6]: 1.28
- glycan array binding signal (z-score) [7]: -0.846
- glycan array binding signal (z-score) [8]: 0.068
- glycan array binding signal (z-score) [9]: 1.63
- glycan array binding signal (z-score) [10]: -0.046
- glycan array binding signal (z-score) [11]: -0.123
- glycan array binding signal (z-score) [12]: -0.444
- glycan array binding signal (z-score) [13]: 0.203
- glycan array binding signal (z-score) [14]: -0.663
- glycan array binding signal (z-score) [15]: 0.914
- glycan array binding signal (z-score) [16]: 2.92
- glycan array binding signal (z-score) [17]: -0.224
- glycan array binding signal (z-score) [18]: 1.23
- glycan array binding signal (z-score) (Fuc(a1-2)Gal(b1-4)Glc): -1.99
- glycan array binding signal (z-score) (Fuc(a1-2)Gal(b1-4)Glc6S): -0.067
- glycan array binding signal (z-score) (Fuc(a1-2)Gal(b1-4)GlcNAc): 0.007
- glycan array binding signal (z-score) [19]: 0.232
- glycan array binding signal (z-score) [20]: -0.008
- glycan array binding signal (z-score) [21]: 1.27
- glycan array binding signal (z-score) [22]: -0.681
- glycan array binding signal (z-score) [23]: 0.141
- glycan array binding signal (z-score) [24]: -0.433
